The numbers were not newly measured in patent publication US20250332159A1, “REACTIVE OXYGEN SPECIES MODULATION THROUGH BINDING OF LIGANDS AT THE NQ-BINDING SITE OF THE RESPIRATORY COMPLEX III” (University of Health Sciences & Pharmacy in St. Louis, priority 2024, published 2025), which cites them from elsewhere.

Molecules are shown by their SMILES.

This data set relates to MCF7 cells. As to conditions: read-out: IC50 of positive controls; MCF7, literature references given (Seeger et al., 2004; Fang et al., 2014); cited from earlier work.

On to `COc1cccc2c1C(=O)c1c(O)c3c(c(O)c1C2=O)C[C@@](O)(C(=O)CO)C[C@@H]3O[C@H]1C[C@H](N)[C@H](O)[C@H](C)O1` [doxorubicin], for which the IC50 (commonly the midpoint of a concentration-inhibition curve) is ~1 µM.
